The other results are listed elsewhere or left out.
Experiments:
Assay in all cases: log2 fold change, soluble protein after heating vs DMSO (PISA); higher = thermal stabilisation; K562 lysate, 10 uM; active = over 0.2 and 3.5 SD of the protein, either way, in both replicates (recomputed)
[1] = compound: CCCS(=O)(=O)Nc1ccc(F)c(C(=O)c2c[nH]c3ncc(Cl)cc23)c1F
Method in brief: (§1)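 Following dounce homogenisation of K562 pellets in PBS pH 7.4 with 1 mM MgCl2, crude extract at 1 mg/mL protein was incubated for 30 min with 10 μM compound. Aliquots were then heated for 3 min over 48°C-58°C and pooled, NP-40 was added to 0.5% at 4°C, and soluble protein was recovered as the supernatant at 21,000xg for 90 min. Channel-sum-equalised TMTpro 16plex LC-MS/MS quantified this protein. Each value, from duplicates, is a log-two fold change in thermal stability relative to solvent controls.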

Chains of the proteins cited; added tags and fusions are not shown. Lines headed by an entry give the natural chain unless they say otherwise; changes in a name come on top.
UniProt Q8N196: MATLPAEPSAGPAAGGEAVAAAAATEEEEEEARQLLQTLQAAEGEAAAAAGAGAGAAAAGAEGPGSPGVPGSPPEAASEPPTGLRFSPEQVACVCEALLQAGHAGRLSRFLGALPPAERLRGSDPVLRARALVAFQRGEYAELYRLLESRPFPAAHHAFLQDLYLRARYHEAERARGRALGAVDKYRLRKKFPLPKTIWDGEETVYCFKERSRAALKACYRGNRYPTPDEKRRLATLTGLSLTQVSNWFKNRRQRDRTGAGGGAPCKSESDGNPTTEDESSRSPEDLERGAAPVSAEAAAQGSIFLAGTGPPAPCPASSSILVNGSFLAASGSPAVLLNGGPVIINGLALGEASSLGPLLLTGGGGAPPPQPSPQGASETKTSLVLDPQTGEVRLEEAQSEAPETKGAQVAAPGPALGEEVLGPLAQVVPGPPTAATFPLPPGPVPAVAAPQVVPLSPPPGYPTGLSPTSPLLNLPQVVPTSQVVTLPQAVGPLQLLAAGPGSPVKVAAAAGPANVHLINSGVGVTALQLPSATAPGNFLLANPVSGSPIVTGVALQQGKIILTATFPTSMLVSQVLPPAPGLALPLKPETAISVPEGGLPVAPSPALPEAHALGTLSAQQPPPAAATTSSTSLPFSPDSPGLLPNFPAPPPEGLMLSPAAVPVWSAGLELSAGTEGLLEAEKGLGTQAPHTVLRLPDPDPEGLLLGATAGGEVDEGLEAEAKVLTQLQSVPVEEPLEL
UniProt Q9NP50: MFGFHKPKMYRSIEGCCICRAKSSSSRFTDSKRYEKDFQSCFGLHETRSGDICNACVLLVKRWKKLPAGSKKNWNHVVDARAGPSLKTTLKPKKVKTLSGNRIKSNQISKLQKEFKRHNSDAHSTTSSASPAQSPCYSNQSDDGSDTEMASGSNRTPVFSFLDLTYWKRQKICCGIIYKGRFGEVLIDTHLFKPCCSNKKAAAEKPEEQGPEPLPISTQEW
UniProt Q96B97, whole entry, looked up: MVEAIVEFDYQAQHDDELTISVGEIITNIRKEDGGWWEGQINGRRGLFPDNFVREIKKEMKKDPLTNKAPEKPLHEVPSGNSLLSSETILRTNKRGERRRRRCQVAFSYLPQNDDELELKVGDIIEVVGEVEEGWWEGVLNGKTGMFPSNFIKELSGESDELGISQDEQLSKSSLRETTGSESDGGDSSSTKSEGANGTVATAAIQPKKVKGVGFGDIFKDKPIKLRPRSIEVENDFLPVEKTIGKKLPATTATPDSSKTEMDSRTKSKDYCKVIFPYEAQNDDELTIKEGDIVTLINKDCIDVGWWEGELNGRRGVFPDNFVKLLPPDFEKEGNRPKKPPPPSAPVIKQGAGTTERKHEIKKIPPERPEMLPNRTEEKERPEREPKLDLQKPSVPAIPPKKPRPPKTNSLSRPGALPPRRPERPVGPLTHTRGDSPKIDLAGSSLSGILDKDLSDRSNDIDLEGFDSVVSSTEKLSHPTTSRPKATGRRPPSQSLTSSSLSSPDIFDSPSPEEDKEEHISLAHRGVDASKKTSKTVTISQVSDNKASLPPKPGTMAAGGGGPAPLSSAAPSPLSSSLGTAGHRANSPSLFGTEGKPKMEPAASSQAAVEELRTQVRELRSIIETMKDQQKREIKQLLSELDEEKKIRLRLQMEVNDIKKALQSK

barasertib = compound: CCN(CCCOc1ccc2c(Nc3cc(CC(=O)Nc4cccc(F)c4)[nH]n3)ncnc2c1)CCOP(=O)(O)O [barasertib]
Method in brief: as §1

volasertib = compound: CC[C@@H]1C(=O)N(C)c2cnc(Nc3ccc(C(=O)N[C@H]4CC[C@H](N5CCN(CC6CC6)CC5)CC4)cc3OC)nc2N1C(C)C [volasertib]
Method in brief: as §1

[2] = compound: CCn1c(C(=O)N(C2CC2)C2CC2)cc2c3c(ncn3C)c(Nc3cc(C)n(C)n3)nc21
Method in brief: as §1

[3] = compound: CCn1cc(-c2ccnc3[nH]c(-c4cccc(CN(C)C)c4)cc23)c(-c2ccc(NC(=O)N(C)C)cc2)n1
Method in brief: as §1

[4] = compound: CN1CCC(CNc2ccc3ncc(-c4cccc(OC(F)(F)F)c4)n3n2)CC1
Method in brief: as §1

saracatinib = compound: CN1CCN(CCOc2cc(OC3CCOCC3)c3c(Nc4c(Cl)ccc5c4OCO5)ncnc3c2)CC1 [saracatinib]
Method in brief: as §1

sotrastaurin = compound: CN1CCN(c2nc(C3=C(c4c[nH]c5ccccc45)C(=O)NC3=O)c3ccccc3n2)CC1 [sotrastaurin]
Method in brief: as §1

alvocidib = compound: CN1CC[C@H](c2c(O)cc(O)c3c(=O)cc(-c4ccccc4Cl)oc23)[C@H](O)C1 [alvocidib]
Method in brief: as §1

Tubastatin A = compound: CN1CCc2c(c3ccccc3n2Cc2ccc(C(=O)NO)cc2)C1 [Tubastatin A]
Method in brief: as §1

[5] = compound: CNC(=O)C1=CC=CC=C1NC2=NC(=NC=C2Cl)NC3=C(C=C(C=C3)N4CCOCC4)OC
Method in brief: as §1

[6] = compound: CNc1nc(-c2ccc3c(N)n[nH]c3c2)cc(N2C[C@@H](C(=O)NC3CCCCC3)CC[C@H]2C)n1
Method in brief: as §1

alisertib = compound: COc1cc(Nc2ncc3c(n2)-c2ccc(Cl)cc2C(c2c(F)cccc2OC)=NC3)ccc1C(=O)O [alisertib]
Method in brief: as §1

[7] = compound: COc1cc2nc(-c3cc(F)ccc3O)nc(N[C@@H]3CNC[C@H]3C(C)(C)O)c2cc1OC
Method in brief: as §1

gefitinib = compound: COc1cc2ncnc(Nc3ccc(F)c(Cl)c3)c2cc1OCCCN1CCOCC1 [gefitinib]
Method in brief: as §1

vemurafenib = compound: CCCS(=O)(=O)Nc1ccc(F)c(C(=O)c2c[nH]c3ncc(-c4ccc(Cl)cc4)cc23)c1F [vemurafenib]
Method in brief: as §1

defactinib = compound: CNC(=O)c1ccc(Nc2ncc(C(F)(F)F)c(NCc3nccnc3N(C)S(C)(=O)=O)n2)cc1 [defactinib]
Method in brief: as §1

[8] = compound: CC[C@@H]1C(=O)N(C)c2cnc(Nc3ccc(C(=O)NC4CCN(C)CC4)cc3OC)nc2N1C1CCCC1
Method in brief: as §1

encorafenib = compound: COC(=O)N[C@@H](C)CNc1nccc(-c2cn(C(C)C)nc2-c2cc(Cl)cc(NS(C)(=O)=O)c2F)n1 [encorafenib]
Method in brief: as §1

[9] = compound: COC(=O)[C@H](CCSC)NC(=O)C1=C(C=C(C=C1)NC[C@H](CS)N)C2=CC=CC=C2
Method in brief: as §1

Measured: log2 fold change

SIX5 (UniProt Q8N196)
inactive: [1] 0.031 | barasertib -0.026 | volasertib -0.046 | [2] 0.084 | [3] 0.538 | [4] -0.132 | saracatinib -0.093 | sotrastaurin -0.009 | alvocidib 0.159 | Tubastatin A 0.117 | [5] 0.015 | [6] 0.043 | alisertib 0.023 | [7] 0.008 | gefitinib 0.13

SINHCAF (UniProt Q9NP50)
inactive: vemurafenib 0.09 | [2] 0 | [3] -0.051 | [4] 0.057 | saracatinib 0.106 | sotrastaurin 0.052 | alvocidib 0.14 | Tubastatin A -0.067 | [5] -0.004 | defactinib 0.154 | [6] -0.317 | alisertib 0.013 | gefitinib 0.062

SH3KBP1 (UniProt Q96B97)
inactive: [1] -0.162 | barasertib 0.345 | [8] 0.074 | volasertib -0.029 | [2] -0.111 | [3] 0.16 | [4] 0.108 | saracatinib 0.114 | sotrastaurin 0.002 | alvocidib -0.056 | Tubastatin A 0.135 | [5] -0.008 | [6] 0.007 | encorafenib -0.001 | [9] 0.136 | [7] 0.111
